Holding throughout (test): glycan array binding signal (z-score within array); higher = stronger binding
Holding throughout (details): glycan notation: IUPAC condensed, linker removed

Experiment [1] concerns the target Gal(b1-4)GlcNAc(b1-3)Gal(b1-4)GlcNAc(b1-3)Gal(b1-4)GlcNAc(b1-2)Man(a1-3)[Gal(b1-4)GlcNAc(b1-3)Gal(b1-4)GlcNAc(b1-3)Gal(b1-4)GlcNAc(b1-2)Man(a1-6)]Man(b1-4)GlcNAc(b1-4)GlcNAc. The gist of the method: (§1)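 Negative Z-scores can be read as non-binding. The Z-score is calculated within each array and then averaged across arrays of one protein sequence at different concentrations or buffers and across linkers. Arrays, 3228 in all, were curated from the Consortium for Functional Glycomics database and kept only where the protein sequence was available.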

Experiment [2] has as its target Gal(b1-4)GlcNAc(b1-3)Gal(b1-4)GlcNAc(b1-3)Gal(b1-4)GlcNAc(b1-2)Man(a1-3)[Gal(b1-4)GlcNAc(b1-3)Gal(b1-4)GlcNAc(b1-3)Gal(b1-4)GlcNAc(b1-2)Man(a1-6)]Man(b1-4)GlcNAc(b1-4)[Fuc(a1-6)]GlcNAc. In short, it runs like this:
as §1

The target in experiment [3] is Gal(b1-4)GlcNAc(b1-3)Gal(b1-4)GlcNAc(b1-3)Gal(b1-4)GlcNAc(b1-2)[Gal(b1-4)GlcNAc(b1-3)Gal(b1-4)GlcNAc(b1-3)Gal(b1-4)GlcNAc(b1-6)]Man(a1-6)[Gal(b1-4)GlcNAc(b1-3)Gal(b1-4)GlcNAc(b1-3)Gal(b1-4)GlcNAc(b1-2)Man(a1-3)]Man(b1-4)GlcNAc(b1-4)[Fuc(a1-6)]GlcNAc. The gist of the method:
as §1

In experiment [4] the target is Gal(b1-4)GlcNAc(b1-3)Gal(b1-4)GlcNAc(b1-3)Gal(b1-4)GlcNAc(b1-3)Gal(b1-4)GlcNAc(b1-2)Man(a1-3)[Gal(b1-4)GlcNAc(b1-3)Gal(b1-4)GlcNAc(b1-3)Gal(b1-4)GlcNAc(b1-3)Gal(b1-4)GlcNAc(b1-2)Man(a1-6)]Man(b1-4)GlcNAc(b1-4)GlcNAc. The gist of the method: as §1
Experiment [5] concerns the target Gal(b1-4)GlcNAc(b1-3)Gal(b1-4)GlcNAc(b1-3)Gal(b1-4)GlcNAc(b1-3)Gal(b1-4)GlcNAc(b1-2)Man(a1-3)[Gal(b1-4)GlcNAc(b1-3)Gal(b1-4)GlcNAc(b1-3)Gal(b1-4)GlcNAc(b1-3)Gal(b1-4)GlcNAc(b1-2)Man(a1-6)]Man(b1-4)GlcNAc(b1-4)[Fuc(a1-6)]GlcNAc. In short, it runs like this:
as §1

Experiment [6] addresses Gal(b1-4)GlcNAc(b1-3)Gal(b1-4)GlcNAc(b1-3)Gal(b1-4)GlcNAc(b1-3)Gal(b1-4)GlcNAc(b1-2)[Gal(b1-4)GlcNAc(b1-3)Gal(b1-4)GlcNAc(b1-3)Gal(b1-4)GlcNAc(b1-3)Gal(b1-4)GlcNAc(b1-6)]Man(a1-6)[Gal(b1-4)GlcNAc(b1-3)Gal(b1-4)GlcNAc(b1-3)Gal(b1-4)GlcNAc(b1-3)Gal(b1-4)GlcNAc(b1-2)Man(a1-3)]Man(b1-4)GlcNAc(b1-4)[Fuc(a1-6)]GlcNAc. The gist of the method:
as §1

In experiment [7] the target is Gal(b1-4)GlcNAc(b1-3)Gal(b1-4)GlcNAc(b1-3)Gal(b1-4)GlcNAc(b1-3)Gal(b1-4)GlcNAc(b1-3)Gal(b1-4)GlcNAc(b1-2)Man(a1-3)[Gal(b1-4)GlcNAc(b1-3)Gal(b1-4)GlcNAc(b1-3)Gal(b1-4)GlcNAc(b1-3)Gal(b1-4)GlcNAc(b1-3)Gal(b1-4)GlcNAc(b1-2)Man(a1-6)]Man(b1-4)GlcNAc(b1-4)GlcNAc. The gist of the method:
as §1

Experiment [8] addresses Gal(b1-4)GlcNAc(b1-3)Gal(b1-4)GlcNAc(b1-3)Gal(b1-4)GlcNAc(b1-3)Gal(b1-4)GlcNAc(b1-3)Gal(b1-4)GlcNAc(b1-2)Man(a1-3)[Gal(b1-4)GlcNAc(b1-3)Gal(b1-4)GlcNAc(b1-3)Gal(b1-4)GlcNAc(b1-3)Gal(b1-4)GlcNAc(b1-3)Gal(b1-4)GlcNAc(b1-2)Man(a1-6)]Man(b1-4)GlcNAc(b1-4)[Fuc(a1-6)]GlcNAc. The gist of the method:
as §1

Experiment [9] has as its target Gal(b1-4)GlcNAc(b1-3)Gal(b1-4)GlcNAc(b1-3)Gal(b1-4)GlcNAc(b1-3)Gal(b1-4)GlcNAc(b1-3)Gal(b1-4)GlcNAc(b1-2)[Gal(b1-4)GlcNAc(b1-3)Gal(b1-4)GlcNAc(b1-3)Gal(b1-4)GlcNAc(b1-3)Gal(b1-4)GlcNAc(b1-3)Gal(b1-4)GlcNAc(b1-6)]Man(a1-6)[Gal(b1-4)GlcNAc(b1-3)Gal(b1-4)GlcNAc(b1-3)Gal(b1-4)GlcNAc(b1-3)Gal(b1-4)GlcNAc(b1-3)Gal(b1-4)GlcNAc(b1-2)Man(a1-3)]Man(b1-4)GlcNAc(b1-4)[Fuc(a1-6)]GlcNAc. In short, it runs like this: as §1

In experiment [10] the target is Gal(b1-4)GlcNAc(b1-3)Gal(b1-4)GlcNAc(b1-3)Gal(b1-4)GlcNAc(b1-3)Gal(b1-4)GlcNAc(b1-3)Gal(b1-4)GlcNAc(b1-3)Gal(b1-4)GlcNAc(b1-2)Man(a1-3)[Gal(b1-4)GlcNAc(b1-3)Gal(b1-4)GlcNAc(b1-3)Gal(b1-4)GlcNAc(b1-3)Gal(b1-4)GlcNAc(b1-3)Gal(b1-4)GlcNAc(b1-3)Gal(b1-4)GlcNAc(b1-2)Man(a1-6)]Man(b1-4)GlcNAc(b1-4)GlcNAc. In short, it runs like this: as §1
Experiment [11] concerns the target Gal(b1-4)GlcNAc(b1-3)Gal(b1-4)GlcNAc(b1-3)GalNAc. In short, it runs like this: as §1
Experiment [12] concerns the target Gal(b1-4)GlcNAc(b1-3)Gal(b1-4)GlcNAc(b1-3)[Gal(b1-4)GlcNAc(b1-3)Gal(b1-4)GlcNAc(b1-6)]GalNAc. The gist of the method:
as §1

The target of experiment [13] is Gal(b1-4)GlcNAc(b1-3)Gal(b1-4)GlcNAc(b1-6)[Gal(b1-3)]GalNAc. The gist of the method: as §1
Experiment [14] deals with Gal(b1-4)GlcNAc(b1-3)Gal(b1-4)[Fuc(a1-3)]GlcNAc(b1-3)Gal(b1-4)[Fuc(a1-3)]GlcNAc. The gist of the method:
as §1

The target of experiment [15] is Gal(b1-4)GlcNAc(b1-3)GalNAc. The gist of the method:
as §1

Experiment [16] deals with Gal(b1-4)GlcNAc(b1-3)[Fuc(a1-3)GlcNAc(b1-6)]Gal(b1-4)Glc. In short, it runs like this:
as §1

In experiment [17] the target is Gal(b1-4)GlcNAc(b1-3)[Gal(b1-4)GlcNAc(b1-6)]Gal(b1-4)GlcNAc. The gist of the method:
as §1

In experiment [18] the target is Gal(b1-4)GlcNAc(b1-3)[GlcNAc(b1-6)]Gal(b1-4)GlcNAc. In short, it runs like this:
as §1

Experiment [19] has as its target Gal(b1-4)GlcNAc(b1-6)Gal(b1-4)GlcNAc. The gist of the method:
as §1

One molecule from the supplement of paper PMC8728848 can be followed below.

The other results are listed elsewhere or left out.

B1: FimA (Actinomyces oris) (protein)
chain: MHHHHHHSSGVDLGTENLYFQSNAETPNYGNIKTDATGSLVIHKHLTGGGKDIGTPTGTAQNADDKGPAVEGVVFTAYPITDINLKDPAGWDTISNLSRTGVPDSACANPAAPTLGAHQFGTPKVSPATTKEGLATITEMPVQAYLVCETTTPGDIVQKAKPFVVTIPHPNTAAGADGQWIYDVNVYPKNEAIDVDKTIQAQKLNGYGVGSLIKFPVESTAPTLDAKSFYKYFQLKDTLDERLSEVTATDVSLEGTPLQPTDYKVETKQQTVTVTFTAEGLKKIKAAPGKKVSAVFQGKVTKAGNGAITNRAQVISDTLYAEQPPTPETPPTDPENPPTSDEVISRWGDLSIKKVDTHQQGQTKAGLQGAQFQLYKAKNAYANTCSNEKEGAPIAINGQTTLTTDAQGAIDIKGLFISDSIDGADRDNQVNAMERCYVLVETKAPAGYVLPAGNGAATPVKVKAGEETTDNVTVENTKQSVPGLPLTG
Regarding B1, the “glycan array binding signal (z-score)” value in experiment [1] is 0.495; in experiment [2], 0.266; in experiment [3], -0.366; in [4], 0.065; in experiment [5], -0.304; in experiment [6] it was 0.025. In addition, the “glycan array binding signal (z-score)” value in [7] was 3.42; in experiment [8], -0.231; in [9], 5.1; in experiment [10], 0.513; in [11], 0.628; in experiment [12], -0.016. Besides, the “glycan array binding signal (z-score)” value in experiment [13] was 0.786; in experiment [14] it was -0.613; in experiment [15], -0.152; in [16], -0.158; in experiment [17] it was 0.707; in experiment [18], -0.534. Also, in experiment [19], the “glycan array binding signal (z-score)” value is -0.553.
